No constants are given. Whether binding was seen depends on the method and setting. Binding can be weak; no strength is given.

Drawing on PMC4821239, “Molecular architecture of the Dam1 complex–microtubule interaction” (Open Biology, 2016), this text covers binding for two molecules.

The assay concerns the target β-tubulin (porcine). As to the kind of experiment: cross-linking; EDC with Sulfo-NHS, Dam1 complex assembled on taxol-stabilized microtubules in BRB80, pellet washed, room temperature 1 h, digested in solution, mass spectrometry; both purified.

B1: Dam1 (protein, UniProt P53267 1-343)
chain: MSEDKAKLGTTRSATEYRLSIGSAPTSRRSSMGESSSLMKFADQEGLTSSVGEYNENTIQQLLLPKIRELSDSIITLDSNFTRLNFIHESLADLNESLGSLLYGIMSNSWCVEFSQAPHDIQDDLIAIKQLKSLEDEKNNLVMELSNMERGIKRKKDEQGENDLAKASQNKQFNQPLFPSSQVRKYRSYDNRDKRKPSKIGNNLQVENEEDYEDDTSSEASFVLNPTNIGMSKSSQGHVTKTTRLNNNTNSKLRRKSILHTIRNSIASGADLPIENDNVVNLGDLHPNNRISLGSGAARVVNGPVTKNRNSMFSGRAERKPTESRHSVAKKTEKKINTRPPFR
Take B1: the binding entry was “binds”.

B2: Duo1 (natural protein, budding yeast, UniProt P53168 1-247, looked up)
chain: MSEQSQLDDSTIDKLIPQIFNEMRSNLNNTTNKFPKSTGGGASDNISANSNSIRSFNSITTQSLLKESESLDKITAMIKNVTAALKNNLPVYVNQVHEVCKSTNSILDSWINIHSQAGYIHKLMSDQTYLKLINDRLHNENVNTNDEDGSTLHNVIALKKKEILDLRQKLENRKGEKDAAPAKPPNQGLNPRYGVQSGRRPVPSAGISNNGRVRKTHVPASKRPSGIPRVTNRWTKPTASSSRKMFR
notes: Duo1, subunit of the budding yeast Dam1 complex; Subunit inside the recombinant 10-subunit complex; also called Duo1 subunit; source: expressed and purified as part of the Dam1 complex as described [3]
In the case of B2, the binding result was “binds”.
